Assay results taken from the supplement of paper PMC10849652.
Some of the results follow.

Protein sequences, listed by entry. Tags and fused reporters are not part of them. Lines headed by an entry give the natural chain unless they say otherwise; changes in a name come on top.
UniProt Q86WA8: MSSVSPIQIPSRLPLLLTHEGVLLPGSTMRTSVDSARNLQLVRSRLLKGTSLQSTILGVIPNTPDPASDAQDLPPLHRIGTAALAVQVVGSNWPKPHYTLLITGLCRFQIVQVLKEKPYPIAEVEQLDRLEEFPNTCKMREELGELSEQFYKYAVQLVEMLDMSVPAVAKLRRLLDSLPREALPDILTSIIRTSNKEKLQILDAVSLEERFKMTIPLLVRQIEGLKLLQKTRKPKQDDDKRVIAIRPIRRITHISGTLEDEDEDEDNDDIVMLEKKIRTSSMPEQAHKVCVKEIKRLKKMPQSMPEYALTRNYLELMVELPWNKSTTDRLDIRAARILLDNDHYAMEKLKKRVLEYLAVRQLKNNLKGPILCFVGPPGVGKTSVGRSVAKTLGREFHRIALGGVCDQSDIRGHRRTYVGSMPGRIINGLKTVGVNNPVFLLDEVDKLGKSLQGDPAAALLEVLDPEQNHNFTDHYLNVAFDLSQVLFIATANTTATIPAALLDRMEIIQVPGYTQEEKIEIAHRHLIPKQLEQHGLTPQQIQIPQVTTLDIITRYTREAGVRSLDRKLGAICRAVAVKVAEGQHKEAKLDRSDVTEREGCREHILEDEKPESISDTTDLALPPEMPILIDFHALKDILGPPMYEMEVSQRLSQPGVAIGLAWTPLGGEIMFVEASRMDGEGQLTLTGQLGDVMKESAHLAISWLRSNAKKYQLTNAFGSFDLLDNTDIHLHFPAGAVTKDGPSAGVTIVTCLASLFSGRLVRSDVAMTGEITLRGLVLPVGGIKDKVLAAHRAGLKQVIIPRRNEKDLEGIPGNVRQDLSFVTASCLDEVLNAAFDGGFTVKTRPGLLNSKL
UniProt Q9C0E8: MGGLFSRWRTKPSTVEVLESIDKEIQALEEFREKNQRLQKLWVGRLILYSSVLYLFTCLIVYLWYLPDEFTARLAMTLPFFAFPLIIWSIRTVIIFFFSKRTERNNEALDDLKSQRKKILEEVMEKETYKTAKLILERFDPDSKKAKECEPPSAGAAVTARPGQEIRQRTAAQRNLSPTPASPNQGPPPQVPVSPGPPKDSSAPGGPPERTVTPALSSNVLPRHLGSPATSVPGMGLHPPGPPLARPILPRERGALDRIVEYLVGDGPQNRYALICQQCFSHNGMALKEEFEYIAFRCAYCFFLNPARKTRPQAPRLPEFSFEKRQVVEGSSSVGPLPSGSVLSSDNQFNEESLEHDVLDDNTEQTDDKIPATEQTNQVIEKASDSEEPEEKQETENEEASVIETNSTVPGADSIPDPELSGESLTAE
UniProt P01130: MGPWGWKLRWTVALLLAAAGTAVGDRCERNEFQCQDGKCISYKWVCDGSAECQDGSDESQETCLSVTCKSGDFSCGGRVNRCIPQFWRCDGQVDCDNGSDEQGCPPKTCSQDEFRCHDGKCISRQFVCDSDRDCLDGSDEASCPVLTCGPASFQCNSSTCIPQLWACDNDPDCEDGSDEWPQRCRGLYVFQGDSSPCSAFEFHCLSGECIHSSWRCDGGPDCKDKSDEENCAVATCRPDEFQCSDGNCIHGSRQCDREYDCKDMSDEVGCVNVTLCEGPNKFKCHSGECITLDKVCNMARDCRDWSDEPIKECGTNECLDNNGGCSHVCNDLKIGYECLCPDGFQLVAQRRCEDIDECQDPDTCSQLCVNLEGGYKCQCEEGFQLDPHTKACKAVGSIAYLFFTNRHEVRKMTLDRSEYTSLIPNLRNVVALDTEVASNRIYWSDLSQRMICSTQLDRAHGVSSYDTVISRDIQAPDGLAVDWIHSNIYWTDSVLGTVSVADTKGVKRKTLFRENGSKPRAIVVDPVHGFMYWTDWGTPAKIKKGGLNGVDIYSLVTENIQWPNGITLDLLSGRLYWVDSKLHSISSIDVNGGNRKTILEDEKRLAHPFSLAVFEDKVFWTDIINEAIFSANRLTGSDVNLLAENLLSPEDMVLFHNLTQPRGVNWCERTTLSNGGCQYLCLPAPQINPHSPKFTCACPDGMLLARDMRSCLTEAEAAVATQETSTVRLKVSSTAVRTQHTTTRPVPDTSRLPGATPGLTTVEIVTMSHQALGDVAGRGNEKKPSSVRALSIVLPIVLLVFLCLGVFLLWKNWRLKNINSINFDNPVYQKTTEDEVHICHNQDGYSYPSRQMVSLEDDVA
UniProt Q6ZN17: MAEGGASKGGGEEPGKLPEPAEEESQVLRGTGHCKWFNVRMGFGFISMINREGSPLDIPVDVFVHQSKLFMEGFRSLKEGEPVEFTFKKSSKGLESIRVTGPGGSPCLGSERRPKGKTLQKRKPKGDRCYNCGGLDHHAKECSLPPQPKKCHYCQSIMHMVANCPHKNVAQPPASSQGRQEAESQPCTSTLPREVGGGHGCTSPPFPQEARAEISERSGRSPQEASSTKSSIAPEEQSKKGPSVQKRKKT
UniProt Q9H0V9: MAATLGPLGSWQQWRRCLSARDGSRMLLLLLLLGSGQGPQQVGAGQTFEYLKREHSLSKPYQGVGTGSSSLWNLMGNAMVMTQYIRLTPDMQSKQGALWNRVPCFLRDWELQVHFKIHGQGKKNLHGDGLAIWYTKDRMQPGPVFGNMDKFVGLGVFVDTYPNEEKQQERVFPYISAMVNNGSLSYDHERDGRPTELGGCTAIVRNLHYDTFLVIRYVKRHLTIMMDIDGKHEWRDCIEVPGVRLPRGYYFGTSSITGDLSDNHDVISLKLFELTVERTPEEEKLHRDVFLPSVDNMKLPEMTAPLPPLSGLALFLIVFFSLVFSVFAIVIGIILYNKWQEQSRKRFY
UniProt P20700: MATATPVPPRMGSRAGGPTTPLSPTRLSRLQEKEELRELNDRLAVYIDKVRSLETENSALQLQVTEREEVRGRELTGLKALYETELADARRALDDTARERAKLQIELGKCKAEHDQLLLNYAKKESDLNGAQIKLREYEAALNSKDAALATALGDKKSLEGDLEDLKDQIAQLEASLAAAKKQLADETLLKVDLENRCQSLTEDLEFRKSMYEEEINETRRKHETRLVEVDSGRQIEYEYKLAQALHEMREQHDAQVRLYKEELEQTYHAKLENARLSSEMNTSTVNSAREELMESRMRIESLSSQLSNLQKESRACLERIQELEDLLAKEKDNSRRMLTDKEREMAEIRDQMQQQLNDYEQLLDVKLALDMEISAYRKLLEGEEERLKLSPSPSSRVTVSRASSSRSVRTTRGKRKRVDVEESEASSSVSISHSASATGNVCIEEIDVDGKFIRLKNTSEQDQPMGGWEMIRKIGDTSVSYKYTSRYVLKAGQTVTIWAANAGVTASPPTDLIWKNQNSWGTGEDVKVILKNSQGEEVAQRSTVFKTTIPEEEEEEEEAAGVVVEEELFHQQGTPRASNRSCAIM
UniProt O43813, whole entry, looked up: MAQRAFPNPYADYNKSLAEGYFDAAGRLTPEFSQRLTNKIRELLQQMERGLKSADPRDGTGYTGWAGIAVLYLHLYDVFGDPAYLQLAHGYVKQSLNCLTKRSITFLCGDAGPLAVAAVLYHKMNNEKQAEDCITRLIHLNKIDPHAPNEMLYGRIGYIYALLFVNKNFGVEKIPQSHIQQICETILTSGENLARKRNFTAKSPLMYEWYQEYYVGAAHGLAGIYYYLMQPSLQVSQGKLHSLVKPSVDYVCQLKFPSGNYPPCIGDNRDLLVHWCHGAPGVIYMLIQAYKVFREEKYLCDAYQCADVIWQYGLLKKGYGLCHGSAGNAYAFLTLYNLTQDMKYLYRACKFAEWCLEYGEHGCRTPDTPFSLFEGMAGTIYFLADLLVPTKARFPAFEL
UniProt Q9H9A6: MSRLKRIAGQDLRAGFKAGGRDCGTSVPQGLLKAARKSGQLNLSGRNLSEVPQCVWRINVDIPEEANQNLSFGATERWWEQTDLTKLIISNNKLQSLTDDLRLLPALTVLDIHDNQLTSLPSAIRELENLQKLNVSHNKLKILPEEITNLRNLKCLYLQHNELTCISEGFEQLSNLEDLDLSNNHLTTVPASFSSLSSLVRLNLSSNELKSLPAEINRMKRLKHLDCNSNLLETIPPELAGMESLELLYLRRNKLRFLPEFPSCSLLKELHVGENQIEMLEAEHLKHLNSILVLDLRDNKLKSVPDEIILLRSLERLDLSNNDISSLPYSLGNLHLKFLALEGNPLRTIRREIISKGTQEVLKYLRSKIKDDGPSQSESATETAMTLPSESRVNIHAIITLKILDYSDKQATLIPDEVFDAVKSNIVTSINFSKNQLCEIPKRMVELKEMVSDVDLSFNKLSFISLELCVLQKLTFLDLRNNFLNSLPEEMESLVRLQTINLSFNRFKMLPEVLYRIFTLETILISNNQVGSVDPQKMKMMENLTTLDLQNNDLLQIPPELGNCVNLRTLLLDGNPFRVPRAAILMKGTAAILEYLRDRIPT
UniProt Q12907: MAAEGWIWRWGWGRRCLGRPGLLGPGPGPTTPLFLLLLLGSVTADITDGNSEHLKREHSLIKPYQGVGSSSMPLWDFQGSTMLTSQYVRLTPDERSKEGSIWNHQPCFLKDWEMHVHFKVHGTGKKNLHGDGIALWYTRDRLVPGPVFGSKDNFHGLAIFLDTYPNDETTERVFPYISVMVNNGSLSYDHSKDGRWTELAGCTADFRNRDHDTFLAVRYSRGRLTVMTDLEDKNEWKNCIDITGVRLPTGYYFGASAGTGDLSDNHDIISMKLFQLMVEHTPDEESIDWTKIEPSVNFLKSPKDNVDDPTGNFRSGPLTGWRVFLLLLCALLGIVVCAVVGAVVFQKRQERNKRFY
UniProt Q71RC2, whole entry, looked up: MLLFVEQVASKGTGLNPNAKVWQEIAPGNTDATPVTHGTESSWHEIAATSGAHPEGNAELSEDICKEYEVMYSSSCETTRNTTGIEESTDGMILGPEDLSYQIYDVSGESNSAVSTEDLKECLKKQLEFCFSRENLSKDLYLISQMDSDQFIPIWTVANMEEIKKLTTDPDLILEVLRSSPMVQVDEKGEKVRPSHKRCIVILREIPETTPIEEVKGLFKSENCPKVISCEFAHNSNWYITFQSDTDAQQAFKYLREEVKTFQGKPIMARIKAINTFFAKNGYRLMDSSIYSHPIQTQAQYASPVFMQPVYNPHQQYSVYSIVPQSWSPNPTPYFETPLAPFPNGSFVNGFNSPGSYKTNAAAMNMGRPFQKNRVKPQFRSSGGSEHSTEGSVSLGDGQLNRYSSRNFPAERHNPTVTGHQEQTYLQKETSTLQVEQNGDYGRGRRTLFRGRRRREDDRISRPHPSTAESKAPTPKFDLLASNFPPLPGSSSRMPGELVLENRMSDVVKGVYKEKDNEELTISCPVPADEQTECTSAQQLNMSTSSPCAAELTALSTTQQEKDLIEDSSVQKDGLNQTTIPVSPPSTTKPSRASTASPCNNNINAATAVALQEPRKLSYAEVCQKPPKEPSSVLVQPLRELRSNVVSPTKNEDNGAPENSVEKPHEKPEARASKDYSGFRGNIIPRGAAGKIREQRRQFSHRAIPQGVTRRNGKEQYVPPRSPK
UniProt Q9UIC8: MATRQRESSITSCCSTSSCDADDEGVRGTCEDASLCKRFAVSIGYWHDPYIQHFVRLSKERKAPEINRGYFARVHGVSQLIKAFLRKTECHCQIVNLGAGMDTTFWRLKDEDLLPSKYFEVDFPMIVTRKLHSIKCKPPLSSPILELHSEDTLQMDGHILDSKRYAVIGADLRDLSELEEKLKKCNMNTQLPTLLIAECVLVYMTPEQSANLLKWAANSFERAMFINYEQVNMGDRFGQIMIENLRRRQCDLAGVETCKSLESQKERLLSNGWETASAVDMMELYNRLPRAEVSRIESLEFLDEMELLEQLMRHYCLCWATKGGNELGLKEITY
UniProt Q96PV6, whole entry, looked up: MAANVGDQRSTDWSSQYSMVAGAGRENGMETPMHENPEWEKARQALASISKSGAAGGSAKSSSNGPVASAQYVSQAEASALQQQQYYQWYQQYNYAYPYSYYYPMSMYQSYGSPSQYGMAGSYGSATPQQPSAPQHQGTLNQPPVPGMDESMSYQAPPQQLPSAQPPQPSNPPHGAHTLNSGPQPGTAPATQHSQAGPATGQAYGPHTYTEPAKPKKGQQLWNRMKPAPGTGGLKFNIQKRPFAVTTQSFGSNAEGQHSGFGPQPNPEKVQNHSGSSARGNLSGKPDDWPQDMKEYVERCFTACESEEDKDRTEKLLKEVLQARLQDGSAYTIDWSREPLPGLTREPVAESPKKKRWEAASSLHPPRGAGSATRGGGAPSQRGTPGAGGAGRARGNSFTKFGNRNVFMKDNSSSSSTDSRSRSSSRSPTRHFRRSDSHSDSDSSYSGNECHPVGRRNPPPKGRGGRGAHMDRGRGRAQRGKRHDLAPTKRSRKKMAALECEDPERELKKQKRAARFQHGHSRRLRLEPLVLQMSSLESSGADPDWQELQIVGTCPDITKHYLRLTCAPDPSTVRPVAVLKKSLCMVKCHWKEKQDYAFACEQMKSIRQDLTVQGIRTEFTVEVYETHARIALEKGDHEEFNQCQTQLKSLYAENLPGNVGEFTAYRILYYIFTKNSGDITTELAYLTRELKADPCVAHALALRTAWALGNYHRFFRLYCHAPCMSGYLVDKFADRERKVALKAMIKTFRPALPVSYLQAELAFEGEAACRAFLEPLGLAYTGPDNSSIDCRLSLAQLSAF

How the values were obtained:
Experiment in all cases: log2 fold change, soluble protein after heating vs DMSO (PISA); higher = thermal stabilisation; K562 cells, 10 uM, 30 min; active = over 0.2 and 3.5 SD of the protein, either way, in both replicates (recomputed)
[1] = compound: C1=CC=C(C=C1)[C@H](COC2=CC3=C(C=C2)NC(=O)N3)NC(=O)C4=CC=CN(C4=O)CC5=CC(=C(C=C5)F)F
Method in brief: (§1)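 K562 cells at 2×10^6 cells/mL were exposed to 10 μM compound for 30 min, then aliquots were heated for 3 min across 48°C-58°C, pooled, and extracted in PBS containing 0.5% NP-40 at 4°C. The supernatant after 21,000xg for 90 min was taken as soluble protein and measured by TMTpro 16plex LC-MS/MS with channel sums equalised. Thermal stability is reported relative to control samples, with values from duplicates. Fold changes are given on a log2 scale.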

[2] = compound: CC1=C(SC2=C1C(=N[C@H](C3=NN=C(N32)C)CC(=O)N)C4=CC=C(C=C4)Cl)C
Method in brief: as §1

[3] = compound: CC1=C2C(=CC=C1)N=C(N(C2=O)C3=CC=CC=C3C)CN4C=NC5=C(N=CN=C54)N
Method in brief: as §1

[4] = compound: Cc1sc2c(c1C)C(c1ccc(Cl)cc1)=N[C@@H](CC(=O)OC(C)(C)C)c1nnc(C)n1-2
Method in brief: as §1

[5] = compound: c1ccc([C@@H]2C[C@H]2NC2CCNCC2)cc1
Method in brief: as §1

Measured: log2 fold change

LONP2 (UniProt Q86WA8)
inactive: [1] -0.036 | [2] 0.009 | [3] 0.02 | [4] 0.009 | [5] -0.147

LEMD3 (UniProt Q9Y2U8)
inactive: [1] 0.067 | [2] 0.034 | [3] 0.119 | [4] -0.031 | [5] -0.01

LIMK2 isoform 3 (UniProt P53671)
inactive: [1] -0.166 | [2] -0.083 | [3] 0.178 | [4] 0.104 | [5] 0.015

LARS2 (UniProt Q15031)
inactive: [1] -0.014 | [2] 0.085 | [3] 0.063 | [4] -0.019 | [5] 0

LRRC57 (UniProt Q8N9N7)
inactive: [1] -0.029 | [2] 0.07 | [3] 0.064 | [4] -0.01 | [5] 0.003

LASP1 (UniProt Q14847)
inactive: [1] 0.018 | [2] -0.008 | [3] -0.033 | [4] -0.005 | [5] 0.01

LNPK (UniProt Q9C0E8)
inactive: [1] 0.015 | [2] 0.015 | [3] 0.009 | [4] -0.01 | [5] 0.016

LEO1 (UniProt Q8WVC0)
inactive: [1] -0.009 | [2] 0.046 | [3] -0.009 | [4] -0.016 | [5] -0.011

LDLR (UniProt P01130)
inactive: [1] -0.037 | [2] 0.014 | [3] 0.037 | [4] 0.022 | [5] 0.062

LIN28B (UniProt Q6ZN17)
inactive: [1] 0.02 | [2] -0.095 | [3] -0.17 | [4] 0.096 | [5] -0.003

LRPPRC (UniProt P42704)
inactive: [1] -0.312 | [2] -0.059 | [3] 0.257 | [4] -0.031 | [5] -0.05

Five neighbouring records out of the list so far:
LNPK (UniProt Q9C0E8)
inactive: [1] 0.015 | [2] 0.015 | [3] 0.009 | [4] -0.01 | [5] 0.016

LEO1 (UniProt Q8WVC0)
inactive: [1] -0.009 | [2] 0.046 | [3] -0.009 | [4] -0.016 | [5] -0.011

LDLR (UniProt P01130)
inactive: [1] -0.037 | [2] 0.014 | [3] 0.037 | [4] 0.022 | [5] 0.062

LIN28B (UniProt Q6ZN17)
inactive: [1] 0.02 | [2] -0.095 | [3] -0.17 | [4] 0.096 | [5] -0.003

LRPPRC (UniProt P42704)
inactive: [1] -0.312 | [2] -0.059 | [3] 0.257 | [4] -0.031 | [5] -0.05

Going on with the list.

LMAN2L isoform 2 (UniProt Q9H0V9)
inactive: [1] 0.016 | [2] 0.031 | [3] -0.024 | [4] -0.011 | [5] -0.003

LMNB1 (UniProt P20700)
inactive: [1] 0.08 | [2] -0.005 | [3] -0.009 | [4] -0.018 | [5] 0.042

LAMTOR2 (UniProt Q9Y2Q5)
inactive: [1] 0.037 | [2] -0.011 | [3] -0.037 | [4] -0.098 | [5] 0.072

L3HYPDH (UniProt Q96EM0)
inactive: [1] 0.026 | [2] 0.123 | [3] 0.039 | [4] -0.006 | [5] -0.07

LANCL1 (UniProt O43813)
inactive: [1] 0.025 | [2] 0.009 | [3] 0.006 | [4] -0.024 | [5] 0.018

LRP8 (UniProt E9PP15)
inactive: [1] 0.07 | [2] -0.155 | [3] 0.114 | [4] -0.142 | [5] 0.092

LRRC40 (UniProt Q9H9A6)
inactive: [1] -0.122 | [2] 0.056 | [3] 0.066 | [4] 0.019 | [5] 0.038

LMAN2 (UniProt Q12907)
inactive: [1] 0.007 | [2] 0.024 | [3] 0.014 | [4] -0.069 | [5] -0.004

LARP4 isoform 4 (UniProt Q71RC2)
inactive: [1] 0.069 | [2] -0.071 | [3] 0 | [4] 0.093 | [5] 0.036

LRRC42 (UniProt Q9Y546)
inactive: [1] -0.052 | [2] 0.036 | [3] 0.382 | [4] 0.135 | [5] 0.064

LIN9 isoform 2 (UniProt Q5TKA1)
inactive: [1] 0.02 | [2] 0.053 | [3] 0.073 | [4] -0.007 | [5] 0.06

LCMT1 (UniProt Q9UIC8)
inactive: [1] -0.061 | [2] 0.064 | [3] 0.005 | [4] -0.032 | [5] -0.049

LENG8 (UniProt Q96PV6)
inactive: [1] 0.036 | [2] 0.177 | [3] -0.356 | [4] -0.028 | [5] 0.022
